Test results reported in publication PMC9938559.
These are yes or no findings as the source states them, for the method shown. Binding seen in cells or lysates may run through a third protein. Some results given as binding are weak or reduced against the parent protein; the word gives no strength.

Sequences of proteins named here, by UniProt entry; tags and fusion partners are left off.
UniProt P07910: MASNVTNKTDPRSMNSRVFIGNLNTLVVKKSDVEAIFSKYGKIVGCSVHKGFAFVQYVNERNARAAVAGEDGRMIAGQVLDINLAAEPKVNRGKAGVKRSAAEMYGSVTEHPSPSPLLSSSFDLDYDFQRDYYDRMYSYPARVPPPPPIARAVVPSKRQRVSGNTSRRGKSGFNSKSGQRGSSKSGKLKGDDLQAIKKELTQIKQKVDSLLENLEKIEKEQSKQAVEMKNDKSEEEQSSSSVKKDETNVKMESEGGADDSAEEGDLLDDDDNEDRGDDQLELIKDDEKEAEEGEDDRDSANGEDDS

Molecular target: heterogeneous nuclear ribonucleoprotein C (human (endogenous in KGN)) (UniProt P07910)
Experiment: co-IP; KGN cells lysed in RIPA buffer; IP antibody on magnetic beads, incubated with the lysate overnight at 4 °C, Western blot; cells with DANCR knockdown (shDANCR), DANCR overexpression or controls

p53 (from UniProt P04637 1-393)
binding: binds
